The values are deposited in ChEMBL (CHEMBL3988442, “University of Dundee, Small-Polar-MMV Screening Library” (2021)).

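Viability assay of Plasmodium falciparum sporozoites; the read-out is not stated. The concentration is filed as 10 mM, unlikely as a test dose, so the dose is not known. Direction is inferred from retests: higher values go with lower viability. Strong results were mostly tested again. Size under these conditions: about 34,000 compounds, about 280 of them at 50% or above in at least one test.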

Values are the deposited “Percent Effect”, in %. The controls that fix the scale are not given in the record; negative values are as filed. This is an unselected part of the compounds tested. Two or more numbers in one place are separate tests of the same structure; such repeats can differ widely.

structure	percent effect
CC(C)(C)NC(=O)[C@@H]1CNC[C@]12Cc1ccccc1C(=O)N2	15.07
COc1ccc(CNCc2ccc(N3CCCCC3)nc2)cc1OC	16.59
COc1cc(CN(C)C(=O)Nc2cc(C)on2)ccc1SC	4.735
CC(C)(O)CN1CCN(C(=O)COCc2ccccc2Cl)CC1	71.26 and 47.5 and 53.2
Cc1nccn1C1CCCN(C(=O)c2sccc2-n2cnnn2)C1 (stereo not given)	-0.2931
CC(C(=O)Nc1ccc(N2CCCC2)nc1)n1cncn1 (stereo not given)	8.64
Cc1cccc(N2CCC(NC(=O)CCCc3cccs3)CC2)n1	-8.855
CCn1nnc2c1C(COC)CN(C(=O)COc1ccccc1)C2 (stereo not given)	-11.27
O=C(Cc1ccsc1)NCC1OCCc2cn(CC3CC3)nc21 (stereo not given)	-1.676
O=C1COc2cc(C(=O)NS(=O)(=O)c3cccc(Cl)c3)ccc2N1	-6.014
O=C(CCNCC(F)(F)F)N1CCC(Nc2cccnn2)CC1	24.04
CC(C)c1noc(C2CCCN2S(=O)(=O)N2CCCCCC2)n1 (stereo not given)	1.643
CC(C)c1ccc(CN2CCN(C(=O)c3cc(C4CC4)[nH]n3)CC2)cc1	16.01
Br.O=C(CN(C1=NCCCC1)c1ccccc1)c1ccccc1	-5.975
Cc1cc(COc2ccc(OC3CCCCNC3=O)cc2)on1 (stereo not given)	-4.976 and -32.92
O=c1[nH]c(CCN2CCCC2Cn2cncn2)nc2ccccc12 (stereo not given)	9.596
CN1CCN(C(=O)C2CCCN(c3cccnn3)C2)CC1 (stereo not given)	2.653
Nc1ncc(-c2ccc(F)cc2)c(C2CCCNC2)n1 (stereo not given)	-0.6341
CCN(Cc1ccc2c(c1)OCO2)C(=O)NC(C)Cn1ccnc1 (stereo not given)	17.39
O=C(O)C(F)(F)F.O=C(O)C(F)(F)F.[H][C@@]12COC[C@@H](C(=O)NCc3ccccn3)[C@]1([H])CN(C1CCOCC1)C2	-0.6857
CC(=O)NCC(=O)N1CCN(C)c2ncccc2C1	-5.122
Cc1cnc(CN(C)C2CCN(CCc3ccccn3)CC2)cn1	10.94
CCNC(=O)c1ccc(N2CCCC(c3nccn3C(C)C)C2)nc1 (stereo not given)	-3.433
CS(=O)(=O)CCC(=O)NC(Cc1ccccc1)C1CC1 (stereo not given)	-0.111
COc1ccc(NC(=O)C(C)n2cncn2)cn1 (stereo not given)	6.62
CC(C)(C)c1ncc(C(=O)NCCNC(=O)c2cccs2)s1	7.631
N#CCCn1nc(C(F)(F)F)c2c1CCCC2	-0.2871
CCC(C)CNc1ccc2oc(COC)nc2c1 (stereo not given)	8.568
Cc1cc(CN2CCN(C(c3ccccc3)c3ccccc3)CC2)no1	-3.043
Cc1noc(Cl)c1CCC(=O)N1CCN(c2cnccn2)CC1	-6.373
CC1COCCN1C(=O)COc1cccc(Oc2ccccn2)c1 (stereo not given)	-6.319 and -6.647 and 2.396
CCN1CCN(C(=O)COCc2cccc(OC)c2)CC1	-6.653
CN(C)S(=O)(=O)c1ccc(CNC(=O)C2CC(=O)N(C(C)(C)C)C2)cc1 (stereo not given)	-5.698
COc1cccc2cc(CNC(=O)N3CCS(=O)(=O)CC3)oc12	0.5587
COc1ccc(OC)c(CN(C)c2nc3c(cnn3C)c(=O)[nH]2)c1	-0.9143
O=C(Cc1ccccn1)N1CCN(C(=O)CC2CCCC2)CC1	-10.99
[H][C@@]12CCN(C(=O)COC)C[C@@]1([H])O[C@@H](c1nnc(C3CC3)o1)C2	0.3373
Cn1nnc2c1C(COCc1ccccn1)CN(C(=O)c1cccs1)C2.O=C(O)C(F)(F)F (stereo not given)	-2.526
CCN(CC1CCOC1)C(=O)c1ccc(N2CCOCC2)c(F)c1 (stereo not given)	2.175
N#Cc1ccc(N2CCC3(CCC(=O)N3Cc3cccnc3)CC2)nc1.O=C(O)C(F)(F)F.O=C(O)C(F)(F)F	9.958
CN(C)CCn1c([C@H]2CCCO2)cc2cccnc21	5.234
CO[C@@H]1CCC[C@@H](N(C)C(=O)c2cc(F)ccc2F)[C@H]1O	-11.96
Cc1cnn(Cc2cc(F)ccc2F)c1NC(=O)NC1CC1	-4.292
CC(C)c1nnc2n1CCN(C(=O)c1ccnc(-n3ccnc3)c1)C2	16.8
CC(C)[C@H](NC(=O)NC1CCS(=O)(=O)C1)C(=O)NCc1cccnc1 (stereo not given in full)	-10.53
CNC(=O)C1(C)CN(Cc2cn(C)c3ccc(F)cc23)CCO1 (stereo not given)	-0.3197
Cc1nc(C(=O)N2CCN(S(C)(=O)=O)CC2)c(-c2cccc(F)c2)s1	0.4541
CC1COCCN1Cc1nc(-c2cccc(Br)c2)no1 (stereo not given)	-0.8
CN(Cc1ccc(F)cc1)CC1(O)CCN(C(=O)c2ccncc2)C1 (stereo not given)	9.527
CN(Cc1nnc(C2CC2)o1)CC1CCCN1c1cccnn1 (stereo not given)	2.449
CC(CNC(=O)NCc1ccoc1)N1CCc2sccc2C1 (stereo not given)	-0.7047 and 4.054
CC(C)OCC(=O)N1CCC(c2ncncc2-c2ccnc(N)c2)C1 (stereo not given)	6.266
O=C(c1ccnnc1)N1CCC2(CC1)CC(N1CCOCC1)C2	7.194
O=C(Cc1cccs1)N1Cc2nc(CN3CCCC3)oc2C1	-2.277
COc1ccc(CN2CC[C@H](NC(C)=O)[C@@H](O)CC2)c(F)c1	4.064
Cl.c1nn(C2CCCCC2)cc1-c1cncn1CCCN1CCCCC1	11.42

The first 5 entries again:

{"structure": "CC(C)(C)NC(=O)[C@@H]1CNC[C@]12Cc1ccccc1C(=O)N2", "percent effect": 15.07}
{"structure": "COc1ccc(CNCc2ccc(N3CCCCC3)nc2)cc1OC", "percent effect": 16.59}
{"structure": "COc1cc(CN(C)C(=O)Nc2cc(C)on2)ccc1SC", "percent effect": 4.735}
{"structure": "CC(C)(O)CN1CCN(C(=O)COCc2ccccc2Cl)CC1", "percent effect": "71.26 and 47.5 and 53.2"}
{"structure": "Cc1nccn1C1CCCN(C(=O)c2sccc2-n2cnnn2)C1", "stereo": "stereo not given", "percent effect": -0.2931}